# Test results: paper PMC11432330, “Novel Drug-like HsrA Inhibitors Exhibit Potent Narrow-Spectrum Antimicrobial Activities against Helicobacter pylori” (International Journal of Molecular Sciences, 2024)
# This continues a long series; more values of the same kind are listed elsewhere.
# System: H. pylori 26695
# Experiment: In vivo inhibition of HsrA: RNA-Seq transcriptomic analysis of exposed cells
# Format: cell-based, Helicobacter pylori
# Method: Bacterial growth from three blood agar plates of H. pylori ATCC 700392 (aka 26695) incubated for 48 h at 37 °C under microaerobic conditions was aseptically resuspended in BHI + FBS and adjusted to 10^7 CFU/mL. BHI broth cultures were incubated microaerobically at 37 °C for 24 h. […] At this time, bacterial growth was stopped by adding 1.5 mL ice-cold RNA stop solution (95% absolute ethanol, 5% acid-buffered phenol) and subsequently incubated on ice. Control samples were exposed to the same amount of DMSO instead of the inhibitor. Helicobacter cells from all samples were harvested by centrifugation (4000 rpm at 4 °C for 10 min), then the pellets were quickly frozen by immersion in liquid nitrogen and stored at −80 °C.
# RNA-Seq analysis was performed by GENEWIZ (Azenta Life Sciences, Leipzig, Germany). Frozen cell pellets from two biological replicates of each treatment condition were properly submitted to GENEWIZ in dry ice. RNA-Seq libraries were prepared according to standard protocols via rRNA depletion, RNA fragmentation and random priming, reverse transcription, 5’-phosphorylation and dA-tailing of cDNAs, adaptor ligation, and PCR enrichment. Once the quality of each library was confirmed, they were sequenced on an Illumina NovaSeq 6000 (Illumina, San Diego, CA, USA) with 150-bp paired-ends. Raw sequence reads were filtered to remove possible adapter sequences and nucleotides with poor quality using Trimmomatic v.0.36 [105]. The trimmed reads were subsequently mapped to the H. pylori strain 26695 reference genome NC_000915.1 available on NCBI, by using the Bowtie2 aligner v.2.2.6 [106]. Unique gene hit counts were calculated by using featureCounts from the Subread package v.1.5.2. Only unique reads that fell within the gene regions were counted. Using DESeq2 [108], a comparison of the gene expression between the control and treated groups of samples was performed. The Wald test was used to generate p-values and log2 fold changes. Genes with an adjusted p-value < 0.05 and absolute log2 fold change >1 were considered as differentially expressed genes (DEGs) for each comparison. The RNA-Seq data generated in this study have been deposited in ArrayExpress with the accession number E-MTAB-14255.
compound,measurement,setting,value
"NC(=NOC(=O)Nc1ccc(Cl)cc1)c1csc([N+](=O)[O-])c1 [Ligand V, N′-{[(4-chloroanilino)carbonyl]}oxy-5-nitrothiophene-3-carboximidamide]",log2 Fold Change,"gene HP1252, exposed to lethal concentrations vs control",-0.004
same,log2 Fold Change,"gene HP1253, exposed to lethal concentrations vs control",0.009
same,log2 Fold Change,"gene HP1259, exposed to lethal concentrations vs control",-0.680
same,log2 Fold Change,"gene HP1260, exposed to lethal concentrations vs control",0.098
same,log2 Fold Change,"gene HP1263, exposed to lethal concentrations of V vs control",0.509
same,log2 Fold Change,"gene HP1266, exposed to lethal concentrations vs control",-0.084
same,log2 Fold Change,"gene HP1269, exposed to lethal concentrations vs control",-0.005
same,log2 Fold Change,"gene HP1271, exposed to lethal concentrations vs control",-0.011
same,log2 Fold Change,"gene HP1272, exposed to lethal concentration of V vs control",-0.954
same,log2 Fold Change,"gene HP1273, exposed to lethal concentration of V vs control",-1.032
same,log2 Fold Change,"gene HP1274, exposed to lethal concentration of V vs control",-1.184
same,log2 Fold Change,"gene HP1276, exposed to lethal concentrations vs control",-0.659
same,log2 Fold Change,"gene HP1278, exposed to lethal concentrations vs control",-0.035
same,log2 Fold Change,"gene HP1281, exposed to lethal concentrations vs control",0.060
same,log2 Fold Change,"gene HP1282, exposed to lethal concentration of V vs control",-1.085
same,log2 Fold Change,"gene HP1283, exposed to lethal concentrations vs control",-0.761
same,log2 Fold Change,"gene HP1284, exposed to lethal concentrations vs control",0.138
same,log2 Fold Change,"gene HP1286, exposed to lethal concentration of V vs control",-1.941
same,log2 Fold Change,"gene HP1288, exposed to lethal concentrations vs control",1.125
same,log2 Fold Change,"gene HP1289, exposed to lethal concentrations vs control",1.217
same,log2 Fold Change,"gene HP1290, exposed to lethal concentrations vs control",1.199
same,log2 Fold Change,"gene HP1291, exposed to lethal concentrations vs control",2.138
same,log2 Fold Change,"gene HP1295, exposed to lethal concentration of V vs control",-1.131
same,log2 Fold Change,"gene HP1299, exposed to lethal concentration of V vs control",-1.027
same,log2 Fold Change,"gene HP1321, exposed to lethal concentrations vs control",1.797
same,log2 Fold Change,"gene HP1324, exposed to lethal concentrations vs control",1.131
same,log2 Fold Change,"gene HP1326, exposed to lethal concentrations vs control",1.036
same,log2 Fold Change,"gene HP1327, exposed to lethal concentrations vs control",1.200
same,log2 Fold Change,"gene HP1328, exposed to lethal concentrations of V vs control",0.773
same,log2 Fold Change,"gene HP1329, exposed to lethal concentrations of V vs control",0.841
same,log2 Fold Change,"gene HP1330, exposed to lethal concentrations vs control",-0.835
same,log2 Fold Change,"gene HP1332, exposed to lethal concentrations vs control",-0.793
same,log2 Fold Change,"gene HP1333, exposed to lethal concentrations vs control",-0.026
same,log2 Fold Change,"gene HP1334, exposed to lethal concentrations vs control",1.060
same,log2 Fold Change,"gene HP1336, exposed to lethal concentrations vs control",0.059
same,log2 Fold Change,"gene HP1338, exposed to lethal concentrations vs control",-0.723
same,log2 Fold Change,"gene HP1339, exposed to lethal concentration of V vs control",-0.966
same,log2 Fold Change,"gene HP1340, exposed to lethal concentrations vs control",-0.825
same,log2 Fold Change,"gene HP1341, exposed to lethal concentration of V vs control",-1.103
same,log2 Fold Change,"gene HP1342, exposed to lethal concentrations vs control",1.657
same,log2 Fold Change,"gene HP1344, exposed to lethal concentrations of V vs control",0.858
same,log2 Fold Change,"gene HP1347, exposed to lethal concentration of V vs control",-1.203
same,log2 Fold Change,"gene HP1348, exposed to lethal concentration of V vs control",-1.162
same,log2 Fold Change,"gene HP1349, exposed to lethal concentration of V vs control",-1.383
same,log2 Fold Change,"gene HP1350, exposed to lethal concentrations vs control",-0.756
same,log2 Fold Change,"gene HP1351, exposed to lethal concentrations vs control",0.144
same,log2 Fold Change,"gene HP1362, exposed to lethal concentrations of V vs control",0.703
same,log2 Fold Change,"gene HP1364, exposed to lethal concentrations vs control",-0.686
same,log2 Fold Change,"gene HP1367, exposed to lethal concentrations of V vs control",0.587
same,log2 Fold Change,"gene HP1368, exposed to lethal concentrations vs control",0.096
same,log2 Fold Change,"gene HP1375, exposed to lethal concentrations vs control",-0.135
same,log2 Fold Change,"gene HP1378, exposed to lethal concentration of V vs control",-0.930
same,log2 Fold Change,"gene HP1379, exposed to lethal concentrations vs control",-0.625
same,log2 Fold Change,"gene HP1382, exposed to lethal concentrations of V vs control",0.908
same,log2 Fold Change,"gene HP1383, exposed to lethal concentrations of V vs control",0.490
same,log2 Fold Change,"gene HP1384, exposed to lethal concentrations vs control",0.139
same,log2 Fold Change,"gene HP1386, exposed to lethal concentrations of V vs control",0.843
same,log2 Fold Change,"gene HP1387, exposed to lethal concentrations of V vs control",0.841
same,log2 Fold Change,"gene HP1387a, exposed to lethal concentrations vs control",-0.737
same,log2 Fold Change,"gene HP1391, exposed to lethal concentrations vs control",1.522
same,log2 Fold Change,"gene HP1392, exposed to lethal concentrations vs control",-0.014
same,log2 Fold Change,"gene HP1393, exposed to lethal concentrations of V vs control",0.984
same,log2 Fold Change,"gene HP1394, exposed to lethal concentrations of V vs control",0.553
same,log2 Fold Change,"gene HP1395, exposed to lethal concentrations vs control",1.147
same,log2 Fold Change,"gene HP1398, exposed to lethal concentrations vs control",1.653
same,log2 Fold Change,"gene HP1399, exposed to lethal concentrations vs control",1.076
same,log2 Fold Change,"gene HP1400, exposed to lethal concentrations vs control",1.105
same,log2 Fold Change,"gene HP1401, exposed to lethal concentrations vs control",1.221
same,log2 Fold Change,"gene HP1402, exposed to lethal concentrations vs control",2.174
same,log2 Fold Change,"gene HP1403, exposed to lethal concentrations vs control",1.035
same,log2 Fold Change,"gene HP1406, exposed to lethal concentrations vs control",-0.033
same,log2 Fold Change,"gene HP1407, exposed to lethal concentrations vs control",-0.136
same,log2 Fold Change,"gene HP1409, exposed to lethal concentrations vs control",1.092
same,log2 Fold Change,"gene HP1410, exposed to lethal concentrations of V vs control",0.901
same,log2 Fold Change,"gene HP1412, exposed to lethal concentrations vs control",1.021
same,log2 Fold Change,"gene HP1413, exposed to lethal concentrations of V vs control",0.522
same,log2 Fold Change,"gene HP1414, exposed to lethal concentration of V vs control",-0.929
same,log2 Fold Change,"gene HP1416, exposed to lethal concentrations vs control",0.014
same,log2 Fold Change,"gene HP1421, exposed to lethal concentrations vs control",0.042
same,log2 Fold Change,"gene HP1423, exposed to lethal concentrations of V vs control",0.519
same,log2 Fold Change,"gene HP1424, exposed to lethal concentrations of V vs control",0.901
same,log2 Fold Change,"gene HP1428, exposed to lethal concentration of V vs control",-1.513
same,log2 Fold Change,"gene HP1429, exposed to lethal concentration of V vs control",-0.877
same,log2 Fold Change,"gene HP1430, exposed to lethal concentrations vs control",-0.817
same,log2 Fold Change,"gene HP1437, exposed to lethal concentrations of V vs control",0.812
same,log2 Fold Change,"gene HP1440, exposed to lethal concentrations vs control",1.446
same,log2 Fold Change,"gene HP1441, exposed to lethal concentration of V vs control",-1.611
same,log2 Fold Change,"gene HP1446, exposed to lethal concentrations vs control",-0.633
same,log2 Fold Change,"gene HP1448, exposed to lethal concentration of V vs control",-1.547
same,log2 Fold Change,"gene HP1449, exposed to lethal concentration of V vs control",-1.503
same,log2 Fold Change,"gene HP1450, exposed to lethal concentration of V vs control",-1.895
same,log2 Fold Change,"gene HP1451, exposed to lethal concentration of V vs control",-1.114
same,log2 Fold Change,"gene HP1453, exposed to lethal concentrations vs control",1.232
same,log2 Fold Change,"gene HP1454, exposed to lethal concentrations of V vs control",0.726
same,log2 Fold Change,"gene HP1455, exposed to lethal concentrations of V vs control",0.815
same,log2 Fold Change,"gene HP1456, exposed to lethal concentrations vs control",1.111
same,log2 Fold Change,"gene HP1457, exposed to lethal concentrations of V vs control",0.503
same,log2 Fold Change,"gene HP1458, exposed to lethal concentrations of V vs control",0.882
same,log2 Fold Change,"gene HP1459, exposed to lethal concentrations of V vs control",0.993
same,log2 Fold Change,"gene HP1461, exposed to lethal concentrations vs control",1.212
same,log2 Fold Change,"gene HP1462, exposed to lethal concentration of V vs control",-1.027
same,log2 Fold Change,"gene HP1463, exposed to lethal concentrations vs control",-0.722
same,log2 Fold Change,"gene HP1465, exposed to lethal concentrations vs control",-0.043
same,log2 Fold Change,"gene HP1468, exposed to lethal concentrations vs control",1.467
same,log2 Fold Change,"gene HP1471, exposed to lethal concentrations of V vs control",0.610
same,log2 Fold Change,"gene HP1472, exposed to lethal concentrations vs control",0.099
same,log2 Fold Change,"gene HP1476, exposed to lethal concentrations vs control",-0.863
same,log2 Fold Change,"gene HP1478, exposed to lethal concentrations vs control",-0.870
same,log2 Fold Change,"gene HP1479, exposed to lethal concentration of V vs control",-1.027
same,log2 Fold Change,"gene HP1485, exposed to lethal concentration of V vs control",-1.732
same,log2 Fold Change,"gene HP1486, exposed to lethal concentration of V vs control",-1.134
same,log2 Fold Change,"gene HP1487, exposed to lethal concentrations vs control",-0.858
same,log2 Fold Change,"gene HP1488, exposed to lethal concentration of V vs control",-1.185
same,log2 Fold Change,"gene HP1489, exposed to lethal concentrations vs control",-0.678
same,log2 Fold Change,"gene HP1490, exposed to lethal concentration of V vs control",-0.886
same,log2 Fold Change,"gene HP1491, exposed to lethal concentrations of V vs control",0.763
same,log2 Fold Change,"gene HP1493, exposed to lethal concentrations vs control",-0.624
same,log2 Fold Change,"gene HP1495, exposed to lethal concentrations vs control",-0.632
same,log2 Fold Change,"gene HP1496, exposed to lethal concentration of V vs control",-1.607
same,log2 Fold Change,"gene HP1497, exposed to lethal concentration of V vs control",-1.142
